Test results as given in patent US7811610B2, “Anti-inflammatory pharmaceutical compositions for reducing inflammation and the treatment or prevention of gastric toxicity” (priority 2002, dated 2010).

Tested on: PGE2 synthesis in AGS human gastric mucosal cells
Experiment: Inhibition of PGE2 synthesis in AGS gastric mucosal cells (A23187), including combination index
Type: cell-based

COc1ccc2cc([C@H](C)C(=O)O)ccc2c1 [Naproxen, 2-naphthaleneacetic acid, 5 methoxy-α-methyl-(+)]
AGS/A549 (therapeutic index, IC50 ratio): 0.03
